Test results: paper doi:10.1101/736389
Results are given in words; binding and its absence hold for the method and conditions named. In cells and extracts the contact can be indirect. Here binding means that the protein was enriched with, or labelled near, the bait; the list need not be complete. Sequences can lack the tags named with a protein.

Sequences of proteins named here, by UniProt entry; tags and fusion partners are left off.
UniProt Q9UHB6: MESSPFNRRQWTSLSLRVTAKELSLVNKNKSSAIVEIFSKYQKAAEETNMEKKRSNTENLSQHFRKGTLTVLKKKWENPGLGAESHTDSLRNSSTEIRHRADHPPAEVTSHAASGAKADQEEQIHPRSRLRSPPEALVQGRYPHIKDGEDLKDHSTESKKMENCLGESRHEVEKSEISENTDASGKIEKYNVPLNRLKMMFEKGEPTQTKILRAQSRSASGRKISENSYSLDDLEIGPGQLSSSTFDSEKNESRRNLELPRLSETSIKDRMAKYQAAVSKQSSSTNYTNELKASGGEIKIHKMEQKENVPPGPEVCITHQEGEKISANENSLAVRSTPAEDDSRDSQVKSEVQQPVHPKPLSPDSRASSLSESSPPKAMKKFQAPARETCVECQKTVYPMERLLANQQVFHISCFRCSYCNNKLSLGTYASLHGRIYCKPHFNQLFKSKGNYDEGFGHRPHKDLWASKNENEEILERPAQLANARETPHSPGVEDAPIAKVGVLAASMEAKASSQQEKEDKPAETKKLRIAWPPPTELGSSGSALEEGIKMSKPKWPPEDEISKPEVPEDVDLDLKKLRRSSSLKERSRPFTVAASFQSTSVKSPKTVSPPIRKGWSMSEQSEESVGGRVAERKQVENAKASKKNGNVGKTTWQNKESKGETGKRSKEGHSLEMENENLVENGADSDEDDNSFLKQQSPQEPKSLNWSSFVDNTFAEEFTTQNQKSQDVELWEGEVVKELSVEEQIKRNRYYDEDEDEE
UniProt O75369: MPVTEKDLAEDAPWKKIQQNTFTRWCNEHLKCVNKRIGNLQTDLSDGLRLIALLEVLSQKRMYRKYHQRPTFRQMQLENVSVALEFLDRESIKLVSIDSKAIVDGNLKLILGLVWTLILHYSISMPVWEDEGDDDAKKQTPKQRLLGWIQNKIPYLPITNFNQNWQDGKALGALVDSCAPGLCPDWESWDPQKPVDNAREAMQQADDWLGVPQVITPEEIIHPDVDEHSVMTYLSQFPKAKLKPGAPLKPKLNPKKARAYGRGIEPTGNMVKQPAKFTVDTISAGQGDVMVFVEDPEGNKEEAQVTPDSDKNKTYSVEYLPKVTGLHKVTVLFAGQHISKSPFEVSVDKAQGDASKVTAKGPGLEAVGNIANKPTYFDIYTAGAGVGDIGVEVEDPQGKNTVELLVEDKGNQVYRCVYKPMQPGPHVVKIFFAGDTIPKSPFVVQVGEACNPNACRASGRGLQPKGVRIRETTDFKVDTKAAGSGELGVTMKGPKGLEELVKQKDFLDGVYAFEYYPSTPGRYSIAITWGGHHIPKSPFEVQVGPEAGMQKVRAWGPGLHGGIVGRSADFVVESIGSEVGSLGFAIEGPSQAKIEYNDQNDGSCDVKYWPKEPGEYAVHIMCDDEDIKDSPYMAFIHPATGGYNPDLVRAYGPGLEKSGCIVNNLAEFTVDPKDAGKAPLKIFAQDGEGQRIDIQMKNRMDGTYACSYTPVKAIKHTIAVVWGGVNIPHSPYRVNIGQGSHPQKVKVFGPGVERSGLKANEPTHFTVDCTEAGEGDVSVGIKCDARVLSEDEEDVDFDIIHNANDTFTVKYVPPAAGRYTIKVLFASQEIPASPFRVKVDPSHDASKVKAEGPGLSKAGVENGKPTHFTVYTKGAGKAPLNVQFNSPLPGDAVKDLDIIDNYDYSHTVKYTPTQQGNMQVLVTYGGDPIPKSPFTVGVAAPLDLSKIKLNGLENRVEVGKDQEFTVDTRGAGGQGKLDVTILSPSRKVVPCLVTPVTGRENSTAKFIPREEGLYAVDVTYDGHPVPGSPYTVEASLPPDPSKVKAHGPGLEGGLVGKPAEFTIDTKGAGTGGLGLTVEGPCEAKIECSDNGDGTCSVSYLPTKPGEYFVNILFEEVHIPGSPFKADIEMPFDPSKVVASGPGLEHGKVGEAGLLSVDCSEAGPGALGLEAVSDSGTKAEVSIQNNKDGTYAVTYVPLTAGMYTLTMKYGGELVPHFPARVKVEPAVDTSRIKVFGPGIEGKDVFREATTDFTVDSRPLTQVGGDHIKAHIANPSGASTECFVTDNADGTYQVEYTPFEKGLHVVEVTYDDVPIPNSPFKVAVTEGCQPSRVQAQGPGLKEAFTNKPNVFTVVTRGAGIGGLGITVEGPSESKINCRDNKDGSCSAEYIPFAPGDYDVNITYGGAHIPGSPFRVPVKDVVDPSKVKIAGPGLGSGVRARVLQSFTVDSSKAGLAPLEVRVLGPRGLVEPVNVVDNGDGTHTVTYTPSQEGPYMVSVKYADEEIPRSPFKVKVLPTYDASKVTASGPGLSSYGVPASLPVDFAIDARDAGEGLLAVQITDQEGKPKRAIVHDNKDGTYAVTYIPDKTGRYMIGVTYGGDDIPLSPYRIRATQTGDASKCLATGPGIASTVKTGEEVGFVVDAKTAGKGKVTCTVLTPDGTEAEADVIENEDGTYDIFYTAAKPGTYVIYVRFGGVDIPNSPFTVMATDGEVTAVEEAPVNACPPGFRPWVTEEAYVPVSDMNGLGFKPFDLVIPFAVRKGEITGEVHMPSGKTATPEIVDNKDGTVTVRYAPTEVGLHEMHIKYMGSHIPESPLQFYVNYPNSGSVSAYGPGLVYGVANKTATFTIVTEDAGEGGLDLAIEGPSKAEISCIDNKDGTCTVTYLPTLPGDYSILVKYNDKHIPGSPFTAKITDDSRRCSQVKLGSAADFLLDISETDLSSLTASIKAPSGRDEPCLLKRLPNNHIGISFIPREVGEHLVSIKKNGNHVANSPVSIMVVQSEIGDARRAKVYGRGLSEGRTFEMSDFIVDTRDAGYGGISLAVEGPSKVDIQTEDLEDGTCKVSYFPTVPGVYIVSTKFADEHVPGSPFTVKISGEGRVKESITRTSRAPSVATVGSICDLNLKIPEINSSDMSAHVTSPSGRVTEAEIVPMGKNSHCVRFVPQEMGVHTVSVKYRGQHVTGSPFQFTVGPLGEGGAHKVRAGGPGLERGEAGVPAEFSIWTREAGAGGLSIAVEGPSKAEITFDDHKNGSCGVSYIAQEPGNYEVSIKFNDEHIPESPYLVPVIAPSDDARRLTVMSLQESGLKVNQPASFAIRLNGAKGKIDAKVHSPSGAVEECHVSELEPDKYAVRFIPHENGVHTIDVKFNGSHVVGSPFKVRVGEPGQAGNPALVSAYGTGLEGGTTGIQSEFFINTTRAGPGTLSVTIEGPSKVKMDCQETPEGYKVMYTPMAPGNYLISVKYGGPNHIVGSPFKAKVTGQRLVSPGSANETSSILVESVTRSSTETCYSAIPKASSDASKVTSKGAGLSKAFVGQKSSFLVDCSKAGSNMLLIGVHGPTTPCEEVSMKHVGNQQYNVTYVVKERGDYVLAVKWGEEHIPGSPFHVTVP
UniProt P08590: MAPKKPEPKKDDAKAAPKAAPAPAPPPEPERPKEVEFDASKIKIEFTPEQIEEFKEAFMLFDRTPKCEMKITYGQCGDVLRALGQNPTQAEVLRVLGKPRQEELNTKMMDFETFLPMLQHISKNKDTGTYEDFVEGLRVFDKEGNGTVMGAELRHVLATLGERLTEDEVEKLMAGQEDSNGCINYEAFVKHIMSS
UniProt P60660: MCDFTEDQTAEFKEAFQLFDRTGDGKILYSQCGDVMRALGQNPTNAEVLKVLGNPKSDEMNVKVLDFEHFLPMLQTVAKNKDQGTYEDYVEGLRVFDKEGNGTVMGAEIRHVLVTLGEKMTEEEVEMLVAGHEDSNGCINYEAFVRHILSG
UniProt P14649: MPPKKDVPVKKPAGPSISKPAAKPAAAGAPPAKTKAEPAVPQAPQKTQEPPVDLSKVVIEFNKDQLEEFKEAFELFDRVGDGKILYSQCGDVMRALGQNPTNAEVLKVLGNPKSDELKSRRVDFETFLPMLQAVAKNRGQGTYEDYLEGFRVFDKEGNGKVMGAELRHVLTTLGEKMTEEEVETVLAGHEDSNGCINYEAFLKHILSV
UniProt O14950: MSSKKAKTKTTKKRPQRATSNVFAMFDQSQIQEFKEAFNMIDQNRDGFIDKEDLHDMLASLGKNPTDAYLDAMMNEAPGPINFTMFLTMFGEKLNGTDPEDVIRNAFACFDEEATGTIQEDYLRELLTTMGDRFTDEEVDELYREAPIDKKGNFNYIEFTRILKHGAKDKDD
UniProt P62136: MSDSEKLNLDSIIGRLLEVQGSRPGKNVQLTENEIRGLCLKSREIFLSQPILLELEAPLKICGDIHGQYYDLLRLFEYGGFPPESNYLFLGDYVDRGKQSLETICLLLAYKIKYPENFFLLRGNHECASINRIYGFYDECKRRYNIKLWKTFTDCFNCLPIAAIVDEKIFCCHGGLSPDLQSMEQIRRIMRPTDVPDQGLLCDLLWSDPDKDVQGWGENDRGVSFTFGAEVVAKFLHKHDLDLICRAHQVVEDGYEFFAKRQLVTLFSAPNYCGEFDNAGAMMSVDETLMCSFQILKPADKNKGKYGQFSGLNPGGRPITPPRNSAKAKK
UniProt Q07157: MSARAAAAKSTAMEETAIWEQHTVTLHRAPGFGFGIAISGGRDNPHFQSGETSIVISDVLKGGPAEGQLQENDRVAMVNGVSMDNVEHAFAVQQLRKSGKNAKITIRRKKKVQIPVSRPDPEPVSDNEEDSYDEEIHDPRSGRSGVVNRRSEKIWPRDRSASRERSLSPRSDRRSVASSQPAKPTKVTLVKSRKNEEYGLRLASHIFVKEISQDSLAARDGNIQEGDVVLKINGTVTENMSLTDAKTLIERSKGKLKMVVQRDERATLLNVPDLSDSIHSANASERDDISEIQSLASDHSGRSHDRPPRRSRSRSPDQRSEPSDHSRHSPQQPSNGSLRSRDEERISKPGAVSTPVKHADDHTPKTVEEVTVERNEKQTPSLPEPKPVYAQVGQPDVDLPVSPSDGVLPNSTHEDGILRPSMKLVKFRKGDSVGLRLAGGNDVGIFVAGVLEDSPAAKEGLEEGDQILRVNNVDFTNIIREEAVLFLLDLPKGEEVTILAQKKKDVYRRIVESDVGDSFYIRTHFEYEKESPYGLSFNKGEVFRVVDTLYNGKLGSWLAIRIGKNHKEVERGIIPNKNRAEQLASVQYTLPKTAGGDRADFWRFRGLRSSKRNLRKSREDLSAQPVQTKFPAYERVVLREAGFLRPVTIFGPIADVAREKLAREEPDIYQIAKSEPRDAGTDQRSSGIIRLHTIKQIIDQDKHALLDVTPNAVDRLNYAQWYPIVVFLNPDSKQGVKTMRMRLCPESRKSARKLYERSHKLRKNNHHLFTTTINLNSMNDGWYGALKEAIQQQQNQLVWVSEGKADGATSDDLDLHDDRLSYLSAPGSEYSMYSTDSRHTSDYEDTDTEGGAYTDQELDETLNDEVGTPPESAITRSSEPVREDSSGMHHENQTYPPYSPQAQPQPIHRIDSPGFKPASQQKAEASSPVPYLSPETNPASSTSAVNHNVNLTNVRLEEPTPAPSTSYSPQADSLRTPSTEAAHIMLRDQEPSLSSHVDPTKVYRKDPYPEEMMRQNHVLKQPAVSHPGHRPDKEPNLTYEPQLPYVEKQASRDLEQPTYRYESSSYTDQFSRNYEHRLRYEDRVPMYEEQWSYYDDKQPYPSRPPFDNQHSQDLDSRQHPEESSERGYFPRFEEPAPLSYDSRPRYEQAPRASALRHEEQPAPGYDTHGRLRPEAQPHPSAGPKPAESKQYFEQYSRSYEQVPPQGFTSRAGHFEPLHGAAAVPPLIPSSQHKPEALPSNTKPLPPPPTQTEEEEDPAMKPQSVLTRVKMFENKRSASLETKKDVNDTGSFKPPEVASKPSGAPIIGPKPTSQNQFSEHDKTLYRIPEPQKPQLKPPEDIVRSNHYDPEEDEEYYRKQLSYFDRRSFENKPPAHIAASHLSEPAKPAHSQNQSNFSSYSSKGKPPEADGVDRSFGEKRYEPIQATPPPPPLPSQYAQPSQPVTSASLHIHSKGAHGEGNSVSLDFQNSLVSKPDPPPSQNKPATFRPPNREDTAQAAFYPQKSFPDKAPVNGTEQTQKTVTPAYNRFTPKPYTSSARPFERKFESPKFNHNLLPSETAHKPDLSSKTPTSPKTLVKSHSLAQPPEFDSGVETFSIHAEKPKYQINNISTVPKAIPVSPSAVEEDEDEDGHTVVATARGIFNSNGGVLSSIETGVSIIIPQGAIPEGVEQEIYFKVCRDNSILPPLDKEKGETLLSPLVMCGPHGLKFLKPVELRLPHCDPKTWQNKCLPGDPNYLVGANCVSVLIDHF

T1: FLAG-BirA*-tagged LUZP1 (human) (UniProt Q86V48)
T1 sequence: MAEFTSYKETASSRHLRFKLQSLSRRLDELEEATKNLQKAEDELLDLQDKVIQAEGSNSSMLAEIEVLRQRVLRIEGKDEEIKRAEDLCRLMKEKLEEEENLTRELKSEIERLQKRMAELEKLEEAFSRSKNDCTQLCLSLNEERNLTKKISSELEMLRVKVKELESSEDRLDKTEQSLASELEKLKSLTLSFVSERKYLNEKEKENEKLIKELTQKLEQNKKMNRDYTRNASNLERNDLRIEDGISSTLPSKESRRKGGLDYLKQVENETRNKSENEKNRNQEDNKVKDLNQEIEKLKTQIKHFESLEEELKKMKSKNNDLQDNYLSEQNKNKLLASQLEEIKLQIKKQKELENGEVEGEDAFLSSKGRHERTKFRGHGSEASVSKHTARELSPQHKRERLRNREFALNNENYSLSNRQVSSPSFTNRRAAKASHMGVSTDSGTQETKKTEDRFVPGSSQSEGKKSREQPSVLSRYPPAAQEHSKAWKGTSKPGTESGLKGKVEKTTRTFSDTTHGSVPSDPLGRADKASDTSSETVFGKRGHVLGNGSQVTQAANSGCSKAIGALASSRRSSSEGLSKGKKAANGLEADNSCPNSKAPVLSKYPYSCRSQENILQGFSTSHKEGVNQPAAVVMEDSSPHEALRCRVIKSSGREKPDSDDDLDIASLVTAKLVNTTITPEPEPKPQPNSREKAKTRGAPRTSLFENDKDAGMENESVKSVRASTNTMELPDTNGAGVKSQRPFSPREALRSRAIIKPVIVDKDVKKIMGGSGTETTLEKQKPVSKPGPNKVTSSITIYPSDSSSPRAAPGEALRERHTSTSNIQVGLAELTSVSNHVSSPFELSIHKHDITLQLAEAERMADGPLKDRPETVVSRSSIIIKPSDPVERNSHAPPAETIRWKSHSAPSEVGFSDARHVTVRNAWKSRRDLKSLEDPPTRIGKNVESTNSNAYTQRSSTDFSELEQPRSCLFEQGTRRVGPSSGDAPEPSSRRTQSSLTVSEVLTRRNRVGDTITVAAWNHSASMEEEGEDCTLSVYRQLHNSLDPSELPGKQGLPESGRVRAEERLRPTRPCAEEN

B1: MYL12A (protein, UniProt P19105 1-171)
chain: MSSKRTKTKTKKRPQRATSNVFAMFDQSQIQEFKEAFNMIDQNRDGFIDKEDLHDMLASLGKNPTDEYLDAMMNEAPGPINFTMFLTMFGEKLNGTDPEDVIRNAFACFDEEATGTIQEDYLRELLTTMGDRFTDEEVDELYREAPIDKKGNFNYIEFTRILKHGAKDKDD
B2: MAP7D3 (protein, UniProt Q8IWC1 1-876)
chain: MMADGAAAGAGGSPSLRELRARMVAAANEIAKERRKQDVVNRVATHSSNIRSTFKPVIDGSMLKNDIKQRLARERREEKRRQQDANKETQLLEKERKTKLQYEKQMEERQRKLKERKEKEEQRRIAAEEKRHQKDEAQKEKFTAILYRTLERRRLADDYQQKRWSWGGSAMANSESKTANKRSASTEKLEQGTSALIRQMPLSSAGLQNSVAKRKTDKERSSSLNRRDSNLHSSTDKEQAERKPRVTGVTNYVMQYVTVPLRKCTSDELRAVMFPMSTMKIPPQTKVEESPLEKVETPPKASVDAPPQVNVEVFCNTSMEASPKAGVGMAPEVSTDSFPVVSVDVSPVVSTYDSEMSMDASPELSIEALPKVDLETVPKVSIVASPEASLEAPPEVSLEALPEVSVEAAPEGSLEAPPKGSAEVAPKESVKGSPKESMEASPEAMVKASPKTSLEASMEASPKAKARDAPKKSEMDKQALIPIAKKRLSSYTECYKWSSSPENACGLPSPISTNRQIQKNCPPSPLPLISKQSPQTSFPYKIMPIQHTLSVQSASSTVKKKKETVSKTTNRCEALSQRHMIYEESGNKSTAGIMNAEAATKILTELRRLAREQREKEEEERQREEMQQRVIKKSKDMAKEAVGGQAEDHLKLKDGQQQNETKKKKGWLDQEDQEAPLQKGDAKIKAQEEADKRKKEHERIMLQNLQERLERKKRIEEIMKRTRKTDVNASKVTETSSHDIYEEAEADNEESDKDSLNEMFPSAILNGTGSPTKFKMPFNNAKKMTHKLVFLEDGTSQVRKEPKTYFNGDLKNFRQKSMKDTSIQEVVSRPSSKRMTSHTTKTRKADETNTTSRSSAQTKSEGFHDILPKSSDTFRQ
B3: TP53BP2 (protein, UniProt Q13625 1-1128)
chain: MMPMFLTVYLSNNEQHFTEVPVTPETICRDVVDLCKEPGESDCHLAEVWCGSERPVADNERMFDVLQRFGSQRNEVRFFLRHERPPGRDIVSGPRSQDPSLKRNGVKVPGEYRRKENGVNSPRMDLTLAELQEMASRQQQQIEAQQQLLATKEQRLKFLKQQDQRQQQQVAEQEKLKRLKEIAENQEAKLKKVRALKGHVEQKRLSNGKLVEEIEQMNNLFQQKQRELVLAVSKVEELTRQLEMLKNGRIDSHHDNQSAVAELDRLYKELQLRNKLNQEQNAKLQQQRECLNKRNSEVAVMDKRVNELRDRLWKKKAALQQKENLPVSSDGNLPQQAASAPSRVAAVGPYIQSSTMPRMPSRPELLVKPALPDGSLVIQASEGPMKIQTLPNMRSGAASQTKGSKIHPVGPDWSPSNADLFPSQGSASVPQSTGNALDQVDDGEVPLREKEKKVRPFSMFDAVDQSNAPPSFGTLRKNQSSEDILRDAQVANKNVAKVPPPVPTKPKQINLPYFGQTNQPPSDIKPDGSSQQLSTVVPSMGTKPKPAGQQPRVLLSPSIPSVGQDQTLSPGSKQESPPAAAVRPFTPQPSKDTLLPPFRKPQTVAASSIYSMYTQQQAPGKNFQQAVQSALTKTHTRGPHFSSVYGKPVIAAAQNQQQHPENIYSNSQGKPGSPEPETEPVSSVQENHENERIPRPLSPTKLLPFLSNPYRNQSDADLEALRKKLSNAPRPLKKRSSITEPEGPNGPNIQKLLYQRTTIAAMETISVPSYPSKSASVTASSESPVEIQNPYLHVEPEKEVVSLVPESLSPEDVGNASTENSDMPAPSPGLDYEPEGVPDNSPNLQNNPEEPNPEAPHVLDVYLEEYPPYPPPPYPSGEPEGPGEDSVSMRPPEITGQVSLPPGKRTNLRKTGSERIAHGMRVKFNPLALLLDSSLEGEFDLVQRIIYEVDDPSLPNDEGITALHNAVCAGHTEIVKFLVQFGVNVNAADSDGWTPLHCAASCNNVQVCKFLVESGAAVFAMTYSDMQTAADKCEEMEEGYTQCSQFLYGVQEKMGIMNKGVIYALWDYEPQNDDELPMKEGDCMTIIHREDEDEIEWWWARLNDKEGYVPRNLLGLYPRIKPRQRSLA
B4: EFHD1 (protein, UniProt Q9BUP0 1-239)
chain: MASEELACKLERRLRREEAEESGPQLAPLGAPAPEPKPEPEPPARAPTASADAELSAQLSRRLDINEGAARPRRCRVFNPYTEFPEFSRRLIKDLESMFKLYDAGRDGFIDLMELKLMMEKLGAPQTHLGLKSMIKEVDEDFDGKLSFREFLLIFHKAAAGELQEDSGLMALAKLSEIDVALEGVKGAKNFFEAKVQALSSASKFEAELKAEQDERKREEEERRLRQAAFQKLKANFNT
B5: SORBS1/CAP (protein, UniProt Q9BX66 1-1292)
chain: MSSECDGGSKAVMNGLAPGSNGQDKATADPLRARSISAVKIIPVKTVKNASGLVLPTDMDLTKICTGKGAVTLRASSSYRETPSSSPASPQETRQHESKPGLEPEPSSADEWRLSSSADANGNAQPSSLAAKGYRSVHPNLPSDKSQDATSSSAAQPEVIVVPLYLVNTDRGQEGTARPPTPLGPLGCVPTIPATASAASPLTFPTLDDFIPPHLQRWPHHSQPARASGSFAPISQTPPSFSPPPPLVPPAPEDLRRVSEPDLTGAVSSTDSSPLLNEVSSSLIGTDSQAFPSVSKPSSAYPSTTIVNPTIVLLQHNREQQKRLSSLSDPVSERRVGEQDSAPTQEKPTSPGKAIEKRAKDDSRRVVKSTQDLSDVSMDEVGIPLRNTERSKDWYKTMFKQIHKLNRDTPEENPYFPTYKFPELPEIQQTSEEDNPYTPTYQFPASTPSPKSEDDDSDLYSPRYSFSEDTKSPLSVPRSKSEMSYIDGEKVVKRSATLPLPARSSSLKSSSERNDWEPPDKKVDTRKYRAEPKSIYEYQPGKSSVLTNEKMSRDISPEEIDLKNEPWYKFFSELEFGKPPPKKIWDYTPGDCSILPREDRKTNLDKDLSLCQTELEADLEKMETLNKAPSANVPQSSAISPTPEISSETPGYIYSSNFHAVKRESDGAPGDLTSLENERQIYKSVLEGGDIPLQGLSGLKRPSSSASTKDSESPRHFIPADYLESTEEFIRRRHDDKEKLLADQRRLKREQEEADIAARRHTGVIPTHHQFITNERFGDLLNIDDTAKRKSGSEMRPARAKFDFKAQTLKELPLQKGDIVYIYKQIDQNWYEGEHHGRVGIFPRTYIELLPPAEKAQPKKLTPVQVLEYGEAIAKFNFNGDTQVEMSFRKGERITLLRQVDENWYEGRIPGTSRQGIFPITYVDVIKRPLVKNPVDYMDLPFSSSPSRSATASPQFSSHSKLITPAPSSLPHSRRALSPEMHAVTSEWISLTVGVPGRRSLALTPPLPPLPEASIYNTDHLALSPRASPSLSLSLPHLSWSDRPTPRSVASPLALPSPHKTYSLAPTSQASLHMNGDGGVHTPSSGIHQDSFLQLPLGSSDSVISQLSDAFSSQSKRQPWREESGQYERKAERGAGERGPGGPKISKKSCLKPSDVVRCLSTEQRLSDLNTPEESRPGKPLGSAFPGSEAEQTERHRGGEQAGRKAARRGGSQQPQAQQRRVTPDRSQTSQDLFSYQALYSYIPQNDDELELRDGDIVDVMEKCDDGWFVGTSRRTKQFGTFPGNYVKPLYL
B6: SEPT2 (protein, UniProt Q15019 1-361)
chain: MSKQQPTQFINPETPGYVGFANLPNQVHRKSVKKGFEFTLMVVGESGLGKSTLINSLFLTDLYPERVIPGAAEKIERTVQIEASTVEIEERGVKLRLTVVDTPGYGDAINCRDCFKTIISYIDEQFERYLHDESGLNRRHIIDNRVHCCFYFISPFGHGLKPLDVAFMKAIHNKVNIVPVIAKADTLTLKERERLKKRILDEIEEHNIKIYHLPDAESDEDEDFKEQTRLLKASIPFSVVGSNQLIEAKGKKVRGRLYPWGVVEVENPEHNDFLKLRTMLITHMQDLQEVTQDLHYENFRSERLKRGGRKVENEDMNKDQILLEKEAELRRMQEMIARMQAQMQMQMQGGDGDGGALGHHV

Target: T1, FLAG-BirA*-tagged LUZP1 (human)
Assay: proximity labelling

| binding | Molecule |
| --- | --- |
| binds | EPLIN/LIMA1 (from UniProt Q9UHB6 1-759) |
| binds | FLNA (from UniProt P21333 1-2647) |
| binds | FLNB (from UniProt O75369 1-2602) |
| binds | MYL3 (from UniProt P08590 1-195) |
| binds | MYL6 (from UniProt P60660 1-151) |
| binds | MYL6B (from UniProt P14649 1-208) |
| binds | MYL12B (from UniProt O14950 1-172) |
| binds | PCM1 (from UniProt Q15154 1-2024) |
| binds | PPP1CA (from UniProt P62136 1-330) |
| binds | TJP1 (from UniProt Q07157 1-1748) |
| binds | B1 |
| binds | B2 |
| binds | B3 |
| binds | B4 |
| binds | B5 |
| binds | B6 |
